These are yes or no findings as the source states them, for the method shown. Binding seen in cells or lysates may run through a third protein. A yes stands for co-enrichment or nearness to the bait. Other partners may have been found.

By UniProt entry, the sequences of proteins in these tests, tags left out.
UniProt Q14694: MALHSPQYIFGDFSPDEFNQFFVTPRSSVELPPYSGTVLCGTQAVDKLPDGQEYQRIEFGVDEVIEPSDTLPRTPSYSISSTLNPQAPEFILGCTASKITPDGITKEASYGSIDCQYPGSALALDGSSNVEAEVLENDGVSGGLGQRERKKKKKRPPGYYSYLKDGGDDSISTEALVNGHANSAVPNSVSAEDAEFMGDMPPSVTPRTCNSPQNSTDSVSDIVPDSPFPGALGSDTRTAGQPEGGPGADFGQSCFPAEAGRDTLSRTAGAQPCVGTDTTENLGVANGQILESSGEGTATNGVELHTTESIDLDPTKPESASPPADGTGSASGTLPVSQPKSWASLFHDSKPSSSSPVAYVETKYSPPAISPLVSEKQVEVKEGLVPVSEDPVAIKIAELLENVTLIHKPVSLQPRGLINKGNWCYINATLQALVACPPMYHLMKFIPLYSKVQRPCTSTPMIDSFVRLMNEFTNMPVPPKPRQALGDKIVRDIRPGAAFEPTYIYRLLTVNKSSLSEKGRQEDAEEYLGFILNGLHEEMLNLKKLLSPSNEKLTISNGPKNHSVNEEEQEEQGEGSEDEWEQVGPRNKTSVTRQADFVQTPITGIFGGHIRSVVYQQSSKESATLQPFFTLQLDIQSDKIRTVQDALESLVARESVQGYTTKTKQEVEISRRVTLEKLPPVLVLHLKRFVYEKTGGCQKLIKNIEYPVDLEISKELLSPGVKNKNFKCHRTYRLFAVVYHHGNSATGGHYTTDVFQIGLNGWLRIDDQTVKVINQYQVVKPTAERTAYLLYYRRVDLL
UniProt Q9UBN7: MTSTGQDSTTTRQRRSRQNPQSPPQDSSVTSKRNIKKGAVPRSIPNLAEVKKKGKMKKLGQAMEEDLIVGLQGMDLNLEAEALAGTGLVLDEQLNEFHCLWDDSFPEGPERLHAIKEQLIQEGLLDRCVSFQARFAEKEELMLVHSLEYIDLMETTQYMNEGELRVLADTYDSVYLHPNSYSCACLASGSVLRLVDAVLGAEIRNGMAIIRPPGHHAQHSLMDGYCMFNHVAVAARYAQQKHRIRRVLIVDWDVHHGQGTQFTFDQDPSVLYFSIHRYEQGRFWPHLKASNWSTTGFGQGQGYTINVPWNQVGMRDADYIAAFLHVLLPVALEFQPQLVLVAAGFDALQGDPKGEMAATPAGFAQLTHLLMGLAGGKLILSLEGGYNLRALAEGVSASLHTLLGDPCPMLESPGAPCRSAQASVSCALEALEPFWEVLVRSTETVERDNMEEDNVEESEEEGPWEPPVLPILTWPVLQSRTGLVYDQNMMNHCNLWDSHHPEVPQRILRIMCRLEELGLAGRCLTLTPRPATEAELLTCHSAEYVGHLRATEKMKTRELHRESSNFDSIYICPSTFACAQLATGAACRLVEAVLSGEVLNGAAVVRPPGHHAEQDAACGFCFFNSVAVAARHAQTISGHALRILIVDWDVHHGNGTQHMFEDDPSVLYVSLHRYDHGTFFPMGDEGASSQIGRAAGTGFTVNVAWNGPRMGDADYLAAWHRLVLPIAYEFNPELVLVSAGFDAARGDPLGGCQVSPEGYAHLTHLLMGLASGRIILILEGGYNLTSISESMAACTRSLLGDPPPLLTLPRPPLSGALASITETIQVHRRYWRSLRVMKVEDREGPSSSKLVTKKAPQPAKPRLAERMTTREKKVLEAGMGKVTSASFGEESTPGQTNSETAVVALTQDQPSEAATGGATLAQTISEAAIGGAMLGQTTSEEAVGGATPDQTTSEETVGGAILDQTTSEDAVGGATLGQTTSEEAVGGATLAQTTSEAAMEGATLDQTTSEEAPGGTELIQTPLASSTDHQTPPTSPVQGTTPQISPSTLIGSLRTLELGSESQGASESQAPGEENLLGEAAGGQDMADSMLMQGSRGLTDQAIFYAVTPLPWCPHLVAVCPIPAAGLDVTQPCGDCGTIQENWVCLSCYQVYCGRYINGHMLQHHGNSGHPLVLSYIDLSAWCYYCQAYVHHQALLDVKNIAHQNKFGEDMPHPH

The values below come from article PMC7206099.

This experiment addresses Flag-HA-USP10 (UniProt Q14694). The experiment in a line: affinity purification with mass spectrometry; Flag-HA-USP10 stably expressed in H1299 cells; USP10-associated proteins purified and identified by LC-MS/MS.

For “histone deacetylase 6 (HDAC6), endogenous (from UniProt Q9UBN7 1-1215)”, the binding entry is recorded as “binds”.
